PubChem BioAssay AID1259405 | NCATS | 2018

- Test: 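Knock-downs that lift recombinant protein yield in hamster ovary cells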 (primary screen)
- System: Chinese hamster CHO-K1 ovary cells with stable secreted eGFP expression
- Knock-down reagent: single siRNA against mouse genes, 0.8 pmol siRNA per well (2 µl of 400 nM stock)
- Time to read-out: 3 days
- Measurement: 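Percent of the per-plate non-targeting control median for intracellular GFP per well by laser scanning cytometry and for cell viability by ATP luminescence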
- Scale: GFP, % of control: higher = more GFP per well, higher productivity; viability (ATP), % of control: higher = more viable cells (more ATP)
- Rule for the call: 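Called active when intracellular GFP, relative to negative control, is at or above 120%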
The whole screen tested about 50,000 reagents; shown is a random part of them. Over the whole deposit, about 4,000 (8%) are marked active. 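Mouse siRNA library applied to hamster cells; one well for each siRNA.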 A number with no mark means an inactive call. The numbers tell different reagents against one gene apart. No sequences are given here.

no.	gene knocked down	siRNA no.	GFP, % of control	viability (ATP), % of control
1	1700028K03Rik	1	99.3	60
2	1700028K03Rik	2	56.2	53.1
3	1700028K03Rik	3	93.2	100
4	Nfatc2	1	50.3	25.2
5	Nfatc2	2	65.3	81.8
6	Nfatc2	3	82.5	91.3
7	5330438I03Rik	1	71.5	59.8
8	5330438I03Rik	2	95.4	86.6
9	5330438I03Rik	3	115	107
10	Rpp14	1	78.5	52.1
11	Rpp14	2	69.3	57.6
12	Rpp14	3	39.7	61
13	Epn3	1	63.4	102
14	Epn3	2	80.6	109
15	Dtx3l	1	58.9	37.7
16	Dtx3l	2	59.7	76.7
17	Amot	1	70.9	55.6
18	Amot	2	71.6	58.3
19	Amot	3	80.3	84.2
20	Vmn1r21	1	76.4	73.6
21	Vmn1r21	2	144 (active)	82.5
22	Vmn1r21	3	67.1	82.8
23	Or51e1	1	53.9	72.2
24	Or51e1	2	102	103
25	Or51e1	3	49.9	64.8
26	Angel1	1	129 (active)	104
27	Angel1	2	72.1	92.1
28	Pbx4	1	65.3	87.4
29	Pbx4	2	87.9	114
30	Pbx4	3	63.2	72.4
31	Krtap31-1	1	36.4	61.6
32	Krtap31-1	2	84.5	81.2
33	Krtap31-1	3	67.2	82
34	Rabgap1	1	96.2	81.3
35	Rabgap1	2	102	72.3
36	Rabgap1	3	52.2	76
37	Tmem147	1	105	65.8
38	Tmem147	2	74.1	102
39	Tmem147	3	110	112

Targets listed so far whose target name begins with T or t (3):
gene knocked down	siRNA no.	GFP, % of control	viability (ATP), % of control
Tmem147	1	105	65.8
Tmem147	2	74.1	102
Tmem147	3	110	112

Additional reagents:
no.	gene knocked down	siRNA no.	GFP, % of control	viability (ATP), % of control
40	Or4c111	1	58.2	73.7
41	Or4c111	2	59.8	58.3
42	Or4c111	3	58.1	92.8
43	Zfp296	1	68.9	95
44	Zfp296	2	50.6	60.6
45	Zfp296	3	46.1	71.5
46	Fshr	1	105	77
47	Fshr	2	78.5	73
48	Fshr	3	82.4	88.4
49	Rpe	1	102	96.5
50	Rpe	2	51.7	85.5
51	Rpe	3	64.3	59.4
52	Nsfl1c	1	78	67
53	Nsfl1c	2	78.8	86.3
54	Cxcl9	1	66.2	64.9
55	Cxcl9	2	64.4	79
56	Cxcl9	3	98.2	72.2
57	Trip10	1	54.6	61.4
58	Trip10	2	105	121
59	Trip10	3	89.5	89.9
